Among the data in the supplement of paper PMC9177965 are cell viability activity values, retold here.

The list shows a part of the results, in another mix than the full data.

For the test, the system named is HT29 sg-Ctrl (RNF43 wildtype). The test is described as follows: cell viability activity relative to DMSO (negative = inhibition); higher = more viable cells (less growth inhibition). Particulars: 5 µM; 96 h. The protocol:
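Broad Repurposing Library primary screen at a single dose of 5 uM. HT29 sg-Ctrl and HT29 RNF43 G659fs CRISPR-edited isogenic cells were seeded at 2500 cells/well in 384-well plates in duplicate and treated for 96 h. Viability was read by CellTiter-Glo and reported as % activity relative to DMSO, with MG132 as the positive control (negative = growth inhibition).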
For the compound `COc1cc(N2CCN(C(C)=O)CC2)ccc1Nc1ncc(Cl)c(Nc2ccc(N3CCN(C(C)=O)CC3)cc2OC)n1`, the cell viability activity is -21.5%.

For `Cc1nc2c(-c3cnc(N)nc3)nc(N3CCOCC3)nc2n1C(C)C`, the cell viability activity was -61.7%.
